Results are given in words; binding and its absence hold for the method and conditions named. In cells and extracts the contact can be indirect. Here binding means that the protein was enriched with, or labelled near, the bait; the list need not be complete.

Protein sequences, listed by entry. Tags and fused reporters are not part of them.
UniProt O95602: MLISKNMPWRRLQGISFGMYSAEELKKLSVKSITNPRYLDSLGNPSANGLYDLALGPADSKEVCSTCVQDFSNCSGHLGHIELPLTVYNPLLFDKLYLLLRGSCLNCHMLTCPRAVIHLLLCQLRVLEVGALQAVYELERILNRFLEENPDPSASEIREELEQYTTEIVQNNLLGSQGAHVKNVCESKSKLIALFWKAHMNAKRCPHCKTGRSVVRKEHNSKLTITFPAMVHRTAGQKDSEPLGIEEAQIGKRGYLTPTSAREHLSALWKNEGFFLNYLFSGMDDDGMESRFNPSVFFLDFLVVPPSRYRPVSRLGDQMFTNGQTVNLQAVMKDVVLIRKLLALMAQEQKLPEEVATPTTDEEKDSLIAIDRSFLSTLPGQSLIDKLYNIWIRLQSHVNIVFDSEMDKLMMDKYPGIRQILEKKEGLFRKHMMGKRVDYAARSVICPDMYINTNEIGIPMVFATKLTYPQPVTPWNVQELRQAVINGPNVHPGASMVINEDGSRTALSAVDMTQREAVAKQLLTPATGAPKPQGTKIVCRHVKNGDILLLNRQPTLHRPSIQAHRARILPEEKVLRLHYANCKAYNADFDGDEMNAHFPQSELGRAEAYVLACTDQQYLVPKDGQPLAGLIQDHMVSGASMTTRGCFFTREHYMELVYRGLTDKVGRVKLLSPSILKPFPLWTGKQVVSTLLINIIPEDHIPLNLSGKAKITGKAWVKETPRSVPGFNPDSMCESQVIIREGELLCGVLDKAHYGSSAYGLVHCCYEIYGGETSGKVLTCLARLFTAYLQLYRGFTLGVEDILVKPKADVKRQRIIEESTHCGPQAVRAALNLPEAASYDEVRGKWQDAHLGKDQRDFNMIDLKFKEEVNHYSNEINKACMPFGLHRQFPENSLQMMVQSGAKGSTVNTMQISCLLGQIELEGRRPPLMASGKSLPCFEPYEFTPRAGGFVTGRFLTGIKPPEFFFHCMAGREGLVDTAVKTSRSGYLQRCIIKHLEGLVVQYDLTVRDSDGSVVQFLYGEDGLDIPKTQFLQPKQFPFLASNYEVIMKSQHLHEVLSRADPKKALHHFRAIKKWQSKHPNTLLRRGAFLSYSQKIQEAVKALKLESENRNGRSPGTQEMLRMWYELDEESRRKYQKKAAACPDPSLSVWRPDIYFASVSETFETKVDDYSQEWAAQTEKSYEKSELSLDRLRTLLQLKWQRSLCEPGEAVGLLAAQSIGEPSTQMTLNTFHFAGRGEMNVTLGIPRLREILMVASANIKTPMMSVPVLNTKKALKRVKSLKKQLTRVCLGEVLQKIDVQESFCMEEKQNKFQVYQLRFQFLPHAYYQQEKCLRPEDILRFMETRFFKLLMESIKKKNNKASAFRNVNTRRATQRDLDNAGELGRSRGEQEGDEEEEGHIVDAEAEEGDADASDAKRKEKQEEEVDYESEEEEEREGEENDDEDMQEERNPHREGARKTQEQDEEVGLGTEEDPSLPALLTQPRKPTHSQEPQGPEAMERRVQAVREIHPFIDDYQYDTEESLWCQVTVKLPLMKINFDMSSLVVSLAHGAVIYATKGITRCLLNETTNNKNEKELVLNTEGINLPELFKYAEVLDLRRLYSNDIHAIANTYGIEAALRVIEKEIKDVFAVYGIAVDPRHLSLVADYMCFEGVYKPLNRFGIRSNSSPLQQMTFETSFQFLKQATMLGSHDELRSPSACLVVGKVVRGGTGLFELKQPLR
UniProt O15446: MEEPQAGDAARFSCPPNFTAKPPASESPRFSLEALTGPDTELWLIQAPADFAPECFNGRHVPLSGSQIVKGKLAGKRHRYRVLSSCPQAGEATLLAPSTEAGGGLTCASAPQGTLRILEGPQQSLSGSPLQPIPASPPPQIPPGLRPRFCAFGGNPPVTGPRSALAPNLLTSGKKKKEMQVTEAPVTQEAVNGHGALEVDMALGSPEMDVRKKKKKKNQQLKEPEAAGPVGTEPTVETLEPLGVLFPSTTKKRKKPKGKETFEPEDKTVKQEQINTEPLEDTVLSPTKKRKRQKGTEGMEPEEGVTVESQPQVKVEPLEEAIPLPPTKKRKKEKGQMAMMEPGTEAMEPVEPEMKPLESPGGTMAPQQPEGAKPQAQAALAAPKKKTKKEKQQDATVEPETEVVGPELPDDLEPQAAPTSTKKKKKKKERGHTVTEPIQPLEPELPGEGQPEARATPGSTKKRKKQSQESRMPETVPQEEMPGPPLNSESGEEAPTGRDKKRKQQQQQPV
UniProt Q9GZS1: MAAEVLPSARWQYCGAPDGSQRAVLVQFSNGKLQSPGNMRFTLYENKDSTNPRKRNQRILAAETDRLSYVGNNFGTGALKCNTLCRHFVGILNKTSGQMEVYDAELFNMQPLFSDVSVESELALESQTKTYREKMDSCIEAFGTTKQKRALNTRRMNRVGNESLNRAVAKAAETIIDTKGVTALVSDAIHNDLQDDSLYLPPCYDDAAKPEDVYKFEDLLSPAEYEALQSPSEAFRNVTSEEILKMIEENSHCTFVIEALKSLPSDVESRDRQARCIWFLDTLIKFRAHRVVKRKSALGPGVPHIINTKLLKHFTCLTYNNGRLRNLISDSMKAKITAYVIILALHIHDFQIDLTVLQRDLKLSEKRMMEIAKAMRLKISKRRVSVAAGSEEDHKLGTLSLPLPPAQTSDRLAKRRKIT
UniProt Q9NYV6: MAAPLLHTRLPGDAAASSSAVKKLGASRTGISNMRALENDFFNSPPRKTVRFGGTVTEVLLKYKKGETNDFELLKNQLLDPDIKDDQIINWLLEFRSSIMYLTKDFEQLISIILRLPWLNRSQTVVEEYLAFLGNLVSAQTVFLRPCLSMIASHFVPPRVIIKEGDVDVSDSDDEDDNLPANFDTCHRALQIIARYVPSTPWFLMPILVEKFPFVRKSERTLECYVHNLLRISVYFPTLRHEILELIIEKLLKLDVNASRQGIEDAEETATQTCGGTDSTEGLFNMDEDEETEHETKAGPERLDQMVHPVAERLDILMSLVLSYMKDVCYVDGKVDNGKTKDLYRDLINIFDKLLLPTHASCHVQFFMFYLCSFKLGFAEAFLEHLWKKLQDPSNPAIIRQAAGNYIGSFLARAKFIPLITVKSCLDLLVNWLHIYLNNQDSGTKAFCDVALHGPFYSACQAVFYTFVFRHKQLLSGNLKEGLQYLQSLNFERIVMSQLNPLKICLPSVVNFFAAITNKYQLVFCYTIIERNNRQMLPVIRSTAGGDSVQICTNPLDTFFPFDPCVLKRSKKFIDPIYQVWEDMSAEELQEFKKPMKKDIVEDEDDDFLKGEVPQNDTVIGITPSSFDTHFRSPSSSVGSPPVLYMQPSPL

The target of the test is RNA polymerase I subunit RPA1 with genomic C-terminal sfGFP fusion (human (endogenous in HeLa)) (UniProt O95602). As to the kind of experiment: affinity purification with mass spectrometry; RPA1-sfGFP captured from HeLa POLR1A-sfGFP whole-cell lysate on GFP-Trap Dynabeads, washes with 420 mM NaCl, elution with 3C protease; gel bands identified by mass spectrometry.

Take “RNA polymerase I subunit RPA34 (from UniProt O15446 1-510)”: the binding entry is recorded as “binds”. For the substance “RNA polymerase I subunit RPA49 (from UniProt Q9GZS1 1-419)”, the binding entry is listed as “binds”. With “initiation factor RRN3 (from UniProt Q9NYV6 1-651)”, the binding entry is “binds”.

Values taken from PMC9438803 (Life Science Alliance, 2021).
